PubChem BioAssay AID504764 | Drosophila RNAi Screening Center, 2011

Screen: 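Genes whose knock-down alters Notch-dependent transcription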 (primary screen)
System: Drosophila Kc167 cells
Reagent: long dsRNA against Drosophila genes
Timing: about 5 days (4 days dsRNA, then 24 h after transfection)
Challenge: transfection of constitutively active membrane-tethered Notch lacking the extracellular domain, read 24 h later
Detection: 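Firefly luciferase from an E(spl)m3 reporter with active Notch, plus control-promoter and uninduced reporter wells for normalisation; unnormalised counts, duplicate wells a and b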
Reading the numbers: induced reporter light, run 1, well a and induced reporter light, run 1, well b: higher = more light from the Notch target reporter with active Notch; control promoter light, run 1, well a and control promoter light, run 1, well b: higher = more light from the viral control promoter (cell number, transfection, viability); uninduced reporter light, run 1, well a: higher = more light from the Notch target reporter without active Notch
Rule for the call: 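Hit if the duplicate-averaged log2 ratio of induced to control-promoter light gives a plate-wise z beyond ±2, or induced to uninduced beyond ±1.8; weak-control or discordant-duplicate wells dropped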
Meaning of the calls: active = modifier hit (raised or lowered Notch signal); inactive = not a hit
In all, the deposit lists about 22,000 reagents; shown is an unselected part of those with a known target gene and a result. In the full data, 403 (1.9%) got an active call. 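Unnormalised raw counts per well; ratio z-scores behind the hit calls and whether each hit raises or lowers signal are not deposited.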 A number with no mark means an inactive call. Names joined by + are all predicted targets of the reagent. Not given: the amount of reagent.

| target gene | dsRNA | induced reporter light, run 1, well a | induced reporter light, run 1, well b | control promoter light, run 1, well a | control promoter light, run 1, well b | uninduced reporter light, run 1, well a |
| --- | --- | --- | --- | --- | --- | --- |
| CG6283 | DRSC16009 | 1.08e5 | 1.06e5 | 1.45e5 | 1.35e5 | 9478 |
| CG33465 | DRSC05587 | 1.80e5 | 1.95e5 | 2.48e5 | 2.42e5 | 18670 |
| lov (jim lovell) | DRSC04279 | 2.37e5 (active) | 2.36e5 | 1.49e5 | 2.24e5 | 15300 |
| lov (jim lovell) | DRSC04665 | 2.09e5 | 1.82e5 | 1.83e5 | 1.57e5 | 13790 |
| CG15201 | DRSC19648 | 1.54e5 | 1.51e5 | 2.59e5 | 2.88e5 | 10910 |
| myd (mayday) | DRSC14762 | 25040 | 28635 | 20655 | 23715 | 6938 |
| myd (mayday) | DRSC15512 | 1.81e5 | 1.71e5 | 2.08e5 | 2.06e5 | 13330 |
| CG10516 | DRSC09738 | 1.72e5 | 1.51e5 | 2.73e5 | 2.36e5 | 8130 |
| rictor (rapamycin-insensitive companion of Tor) | DRSC20071 | 1.27e5 | 1.09e5 | 1.33e5 | 1.44e5 | 14775 |
| rho-6 (rhomboid-6) | DRSC02588 | 1.44e5 | 1.56e5 | 1.29e5 | 1.22e5 | 12370 |
| beta'COP (Coat Protein (coatomer) beta') | DRSC03492 | 13965 | 14130 | 18195 | 22915 | 1135 |
| CG8065 | DRSC10959 | 1.74e5 | 1.73e5 | 2.97e5 | 2.36e5 | 13215 |
| CG17199 | DRSC15192 | 1.80e5 | 1.63e5 | 1.77e5 | 1.53e5 | 10805 |
| z (zeste) | DRSC18855 | 9670 | 11565 | 17490 | 19575 | 6310 |
| vir (virilizer) | DRSC04377 | 2.17e5 | 1.95e5 | 1.50e5 | 1.56e5 | 17345 |
| lace | DRSC03564 | 2.15e5 | 2.18e5 | 1.65e5 | 1.76e5 | 12528 |
| Sprn (Spermitin) | DRSC10132 | 1.91e5 | 1.51e5 | 2.31e5 | 1.55e5 | 7255 |
| CG6665 | DRSC07006 | 95815 | 1.19e5 | 2.09e5 | 2.08e5 | 9810 |
| Trs20 (TRAPP subunit 20) | DRSC10489 | 1.33e5 | 1.60e5 | 2.07e5 | 1.87e5 | 10232 |
| CG6005 | DRSC15945 | 1.89e5 | 2.05e5 | 2.47e5 | 2.86e5 | 16925 |
| Qsox2 (Quiescin sulfhydryl oxidase 2) | DRSC15287 | 1.75e5 | 2.07e5 | 2.52e5 | 2.71e5 | 15260 |
| Elp6 (Elongator complex protein 6) | DRSC16571 | 1.21e5 | 1.20e5 | 87185 | 97155 | 8365 |

Next part; the last 2 above are carried over.
| target gene | dsRNA | induced reporter light, run 1, well a | induced reporter light, run 1, well b | control promoter light, run 1, well a | control promoter light, run 1, well b | uninduced reporter light, run 1, well a |
| --- | --- | --- | --- | --- | --- | --- |
| Qsox2 (Quiescin sulfhydryl oxidase 2) | DRSC15287 | 1.75e5 | 2.07e5 | 2.52e5 | 2.71e5 | 15260 |
| Elp6 (Elongator complex protein 6) | DRSC16571 | 1.21e5 | 1.20e5 | 87185 | 97155 | 8365 |
| Marf (Mitochondrial assembly regulatory factor) | DRSC18329 | 1.23e5 | 1.34e5 | 1.57e5 | 1.14e5 | 9742 |
| CG13616 | DRSC14619 | 1.78e5 | 1.52e5 | 1.98e5 | 1.73e5 | 12950 |
| Cp18 (Chorion protein 18) | DRSC11120 | 1.65e5 | 1.56e5 | 1.70e5 | 1.61e5 | 7192 |
| CG33914 | DRSC05033 | 54335 | 62905 | 86655 | 1.11e5 | 5315 |
| 7B2 | DRSC11991 | 70875 | 68860 | 70900 | 61875 | 7040 |
| Hand | DRSC02656 | 1.16e5 | 1.18e5 | 62050 | 85675 | 16580 |
| Pstk + Tim9b | DRSC19504 | 1.46e5 | 1.30e5 | 1.17e5 | 94720 | 11920 |
| Pstk + Tim9b | DRSC20292 | 59915 | 86415 | 71785 | 1.03e5 | 8795 |
| Nepl4 (Neprilysin-like 4) | DRSC03239 | 78175 | 83460 | 66565 | 73415 | 5225 |
| SF1 (Splicing factor 1) | DRSC16844 | 2.39e5 | 2.27e5 | 1.92e5 | 1.85e5 | 21338 |
| dlt (discs lost) | DRSC08705 | 1.62e5 | 1.61e5 | 2.84e5 | 2.05e5 | 12170 |
| ACXC (Adenylyl cyclase X C) | DRSC00846 | 1.39e5 | 1.52e5 | 1.57e5 | 1.67e5 | 13505 |
| Zaf1 (ZAD and Architectural Function 1) | DRSC16121 | 62255 | 85230 | 68185 | 54470 | 4650 |
| Vha55 (Vacuolar H[+]-ATPase 55kD subunit) | DRSC16896 | 1.22e5 | 1.22e5 | 1.02e5 | 80645 | 7480 |
| wg (wingless) | DRSC03636 | 1.57e5 | 1.29e5 | 1.85e5 | 1.56e5 | 10125 |
| Edc3 (Enhancer of decapping 3) | DRSC10620 | 1.31e5 | 1.26e5 | 59925 | 72785 | 9395 |
| CG8526 | DRSC16438 | 62155 | 80175 | 86670 | 49210 | 4565 |
| CG9674 | DRSC11088 | 1.32e5 | 1.42e5 | 87415 | 85055 | 10095 |
| CG9674 | DRSC11089 | 1.89e5 | 1.47e5 | 2.24e5 | 1.28e5 | 7480 |
| CG32544 | DRSC20033 | 81920 | 1.04e5 | 94710 | 1.08e5 | 9100 |
| CG43163 | DRSC10745 | 1.76e5 | 1.44e5 | 2.03e5 | 1.51e5 | 5540 |
| CG43163 | DRSC10748 | 1.46e5 | 1.43e5 | 1.34e5 | 1.37e5 | 6640 |
| Nlg2 (Neuroligin 2) | DRSC03578 | 1.48e5 | 1.25e5 | 1.59e5 | 1.40e5 | 8450 |
| CG6126 | DRSC15971 | 2.54e5 | 2.77e5 | 3.49e5 | 3.38e5 | 16165 |
| CG34115 | DRSC03840 | 81140 | 72970 | 64635 | 70495 | 7555 |
| Act5C (Actin 5C) | DRSC17723 | 1.14e5 | 1.35e5 | 1.62e5 | 1.41e5 | 8065 |
| Ccp84Ae | DRSC12590 | 94905 | 1.16e5 | 80745 | 61130 | 6728 |
| Septin1 (Septin 1) | DRSC20573 | 71105 | 76565 | 97980 | 97160 | 10000 |
| Jhbp13 (Juvenile hormone binding protein 13) | DRSC02913 | 2.01e5 | 2.10e5 | 1.79e5 | 1.66e5 | 16625 |
| pall (pallbearer) | DRSC10364 | 1.20e5 | 1.08e5 | 94945 | 57030 | 10040 |
| Tmtc4 (Transmembrane O-mannosyltransferase targeting cadherins 4) | DRSC15702 | 1.87e5 | 1.93e5 | 2.19e5 | 2.39e5 | 18105 |
| CG6304 | DRSC02948 | 2.08e5 | 2.29e5 | 2.21e5 | 1.77e5 | 15940 |
| CG9522 | DRSC20197 | 86380 | 65640 | 71320 | 52005 | 10835 |
| BaraC (Baramicin C) | DRSC03885 | 1.04e5 | 81235 | 79245 | 86490 | 8405 |
| CG17028 | DRSC10239 | 1.76e5 | 1.41e5 | 1.90e5 | 1.61e5 | 10042 |
| Acat2 (Acetyl-CoA acetyltransferase 2) | DRSC08630 | 90210 | 99105 | 1.18e5 | 1.15e5 | 4605 |
| Ciz1 (Ciz1 zinc finger protein) | DRSC09675 | 1.54e5 | 1.11e5 | 1.73e5 | 1.06e5 | 7765 |
| Sgs7 (Salivary gland secretion 7) | DRSC11281 | 1.63e5 | 1.91e5 | 2.69e5 | 1.65e5 | 9510 |
| ca (claret) | DRSC15305 | 1.84e5 | 1.98e5 | 2.54e5 | 2.75e5 | 13960 |
| ca (claret) | DRSC15306 | 1.84e5 | 1.96e5 | 2.27e5 | 2.42e5 | 16875 |
| ca (claret) | DRSC16314 | 1.47e5 | 1.36e5 | 2.09e5 | 2.22e5 | 15455 |
| Teh3 (tipE homolog 3) | DRSC08537 | 1.32e5 | 1.33e5 | 2.19e5 | 1.33e5 | 11150 |
